Data from the supplement of paper PMC12823440, “Inhibitors supercharge kinase turnover through native proteolytic circuits” (Nature, 2025).
Some of the results follow. The calls rarely recur for the same compound in another form.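 In K562 cells expressing nanoluciferase-fused kinases, luminescence was recorded at 4 h intervals between 2 and 18 h, normalized as percent of control with DMSO at 100% and a positive control at 0%. A significant (2 sigma) signal drop marks a time point as decreased. The authors' rule for a hit is not shown and takes in more than the number of time points.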

Amino acid sequences for entries named in this document (tags omitted). A change or cut given only in a name is not applied to a line headed by its entry.
UniProt O15530: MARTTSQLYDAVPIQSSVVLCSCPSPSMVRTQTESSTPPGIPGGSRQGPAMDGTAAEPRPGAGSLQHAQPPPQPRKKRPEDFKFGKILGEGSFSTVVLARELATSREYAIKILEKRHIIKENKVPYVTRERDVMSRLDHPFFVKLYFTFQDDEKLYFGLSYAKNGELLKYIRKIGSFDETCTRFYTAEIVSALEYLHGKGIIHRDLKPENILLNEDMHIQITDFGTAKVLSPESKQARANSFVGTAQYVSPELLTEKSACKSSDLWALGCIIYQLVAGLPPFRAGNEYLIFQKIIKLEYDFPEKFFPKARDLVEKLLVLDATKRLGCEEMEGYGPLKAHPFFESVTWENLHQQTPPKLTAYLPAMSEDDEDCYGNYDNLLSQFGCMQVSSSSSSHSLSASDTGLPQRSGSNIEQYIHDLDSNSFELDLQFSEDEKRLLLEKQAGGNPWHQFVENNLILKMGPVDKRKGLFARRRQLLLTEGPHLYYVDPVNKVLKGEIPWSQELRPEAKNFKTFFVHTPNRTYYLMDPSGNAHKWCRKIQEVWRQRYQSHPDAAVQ
UniProt P53350, whole entry: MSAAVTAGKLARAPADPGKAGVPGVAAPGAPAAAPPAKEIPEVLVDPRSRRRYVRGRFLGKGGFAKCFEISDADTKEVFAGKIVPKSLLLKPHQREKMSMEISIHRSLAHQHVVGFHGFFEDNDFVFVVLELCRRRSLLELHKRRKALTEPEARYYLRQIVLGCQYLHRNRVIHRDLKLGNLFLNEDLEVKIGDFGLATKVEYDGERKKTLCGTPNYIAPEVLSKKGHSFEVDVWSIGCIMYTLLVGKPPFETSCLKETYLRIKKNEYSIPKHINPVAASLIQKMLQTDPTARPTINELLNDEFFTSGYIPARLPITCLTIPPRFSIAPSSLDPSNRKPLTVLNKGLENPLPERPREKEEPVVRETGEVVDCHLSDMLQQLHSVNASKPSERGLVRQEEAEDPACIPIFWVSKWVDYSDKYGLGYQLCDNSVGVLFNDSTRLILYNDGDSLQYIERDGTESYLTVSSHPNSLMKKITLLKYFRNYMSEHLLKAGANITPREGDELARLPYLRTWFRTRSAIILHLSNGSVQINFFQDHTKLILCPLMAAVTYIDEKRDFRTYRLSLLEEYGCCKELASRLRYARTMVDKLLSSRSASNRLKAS
UniProt Q13131: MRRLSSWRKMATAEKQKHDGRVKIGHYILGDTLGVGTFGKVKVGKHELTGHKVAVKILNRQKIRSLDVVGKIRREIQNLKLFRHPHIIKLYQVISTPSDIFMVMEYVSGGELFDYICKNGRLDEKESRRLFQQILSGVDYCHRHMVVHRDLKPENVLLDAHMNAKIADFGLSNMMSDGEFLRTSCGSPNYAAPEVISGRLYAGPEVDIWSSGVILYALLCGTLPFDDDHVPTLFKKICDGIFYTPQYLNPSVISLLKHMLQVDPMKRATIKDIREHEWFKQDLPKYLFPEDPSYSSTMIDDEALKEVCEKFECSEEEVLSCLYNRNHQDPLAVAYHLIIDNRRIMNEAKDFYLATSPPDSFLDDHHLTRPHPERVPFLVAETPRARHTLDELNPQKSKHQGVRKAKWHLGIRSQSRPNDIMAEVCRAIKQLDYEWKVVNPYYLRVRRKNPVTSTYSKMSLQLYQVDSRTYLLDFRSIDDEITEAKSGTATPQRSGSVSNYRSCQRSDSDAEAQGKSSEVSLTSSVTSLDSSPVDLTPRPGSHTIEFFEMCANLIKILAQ
UniProt Q05397, whole entry, looked up: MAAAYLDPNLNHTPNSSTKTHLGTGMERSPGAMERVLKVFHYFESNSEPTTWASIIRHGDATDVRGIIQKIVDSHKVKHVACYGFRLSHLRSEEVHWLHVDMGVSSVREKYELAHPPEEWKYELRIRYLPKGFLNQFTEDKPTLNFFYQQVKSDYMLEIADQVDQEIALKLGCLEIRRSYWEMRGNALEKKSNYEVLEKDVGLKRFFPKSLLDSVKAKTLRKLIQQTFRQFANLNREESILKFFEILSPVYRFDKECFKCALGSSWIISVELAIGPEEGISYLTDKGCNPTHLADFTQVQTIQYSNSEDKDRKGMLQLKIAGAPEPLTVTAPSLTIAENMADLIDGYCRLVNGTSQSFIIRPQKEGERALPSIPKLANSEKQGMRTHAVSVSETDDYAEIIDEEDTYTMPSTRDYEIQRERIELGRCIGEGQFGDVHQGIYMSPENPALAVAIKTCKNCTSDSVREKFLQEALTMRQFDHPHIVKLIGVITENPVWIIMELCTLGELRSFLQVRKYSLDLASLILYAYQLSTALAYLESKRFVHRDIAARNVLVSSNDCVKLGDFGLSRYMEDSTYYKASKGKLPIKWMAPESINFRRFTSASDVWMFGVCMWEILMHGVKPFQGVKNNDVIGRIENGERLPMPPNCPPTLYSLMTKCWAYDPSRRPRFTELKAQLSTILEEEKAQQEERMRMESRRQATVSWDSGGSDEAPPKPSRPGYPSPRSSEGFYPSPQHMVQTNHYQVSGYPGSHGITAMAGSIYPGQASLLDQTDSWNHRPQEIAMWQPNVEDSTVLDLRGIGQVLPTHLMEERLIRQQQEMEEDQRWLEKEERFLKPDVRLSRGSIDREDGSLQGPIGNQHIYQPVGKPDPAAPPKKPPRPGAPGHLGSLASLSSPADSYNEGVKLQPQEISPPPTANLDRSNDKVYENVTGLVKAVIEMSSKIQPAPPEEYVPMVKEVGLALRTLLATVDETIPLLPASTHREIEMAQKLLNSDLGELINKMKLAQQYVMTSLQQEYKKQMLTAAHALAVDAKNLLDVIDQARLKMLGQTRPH
UniProt Q14289, whole entry, looked up: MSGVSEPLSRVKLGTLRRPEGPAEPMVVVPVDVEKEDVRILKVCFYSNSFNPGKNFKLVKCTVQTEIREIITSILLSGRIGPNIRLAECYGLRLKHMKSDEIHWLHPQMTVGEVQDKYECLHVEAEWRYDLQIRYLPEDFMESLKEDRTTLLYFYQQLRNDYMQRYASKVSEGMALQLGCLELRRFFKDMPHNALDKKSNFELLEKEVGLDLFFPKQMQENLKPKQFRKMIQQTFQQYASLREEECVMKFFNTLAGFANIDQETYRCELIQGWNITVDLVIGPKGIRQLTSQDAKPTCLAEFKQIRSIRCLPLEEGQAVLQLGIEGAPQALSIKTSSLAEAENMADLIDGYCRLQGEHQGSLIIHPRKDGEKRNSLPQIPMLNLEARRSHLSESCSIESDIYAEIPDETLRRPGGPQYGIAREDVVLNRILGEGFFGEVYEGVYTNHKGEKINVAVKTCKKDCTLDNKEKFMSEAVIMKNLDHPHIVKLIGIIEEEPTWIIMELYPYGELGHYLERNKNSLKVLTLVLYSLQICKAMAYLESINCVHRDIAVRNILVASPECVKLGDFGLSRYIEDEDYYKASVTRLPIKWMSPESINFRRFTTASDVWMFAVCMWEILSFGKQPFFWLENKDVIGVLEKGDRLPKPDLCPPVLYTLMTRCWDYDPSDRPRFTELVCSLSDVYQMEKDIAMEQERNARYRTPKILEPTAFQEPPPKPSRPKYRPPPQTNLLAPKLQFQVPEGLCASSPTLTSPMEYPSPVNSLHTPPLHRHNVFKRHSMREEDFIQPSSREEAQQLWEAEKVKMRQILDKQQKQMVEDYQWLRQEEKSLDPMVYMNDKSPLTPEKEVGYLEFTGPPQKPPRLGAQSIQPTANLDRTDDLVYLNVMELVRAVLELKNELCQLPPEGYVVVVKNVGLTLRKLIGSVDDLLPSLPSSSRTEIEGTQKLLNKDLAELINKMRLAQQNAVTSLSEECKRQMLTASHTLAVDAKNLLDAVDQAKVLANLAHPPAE
UniProt Q01974, whole entry: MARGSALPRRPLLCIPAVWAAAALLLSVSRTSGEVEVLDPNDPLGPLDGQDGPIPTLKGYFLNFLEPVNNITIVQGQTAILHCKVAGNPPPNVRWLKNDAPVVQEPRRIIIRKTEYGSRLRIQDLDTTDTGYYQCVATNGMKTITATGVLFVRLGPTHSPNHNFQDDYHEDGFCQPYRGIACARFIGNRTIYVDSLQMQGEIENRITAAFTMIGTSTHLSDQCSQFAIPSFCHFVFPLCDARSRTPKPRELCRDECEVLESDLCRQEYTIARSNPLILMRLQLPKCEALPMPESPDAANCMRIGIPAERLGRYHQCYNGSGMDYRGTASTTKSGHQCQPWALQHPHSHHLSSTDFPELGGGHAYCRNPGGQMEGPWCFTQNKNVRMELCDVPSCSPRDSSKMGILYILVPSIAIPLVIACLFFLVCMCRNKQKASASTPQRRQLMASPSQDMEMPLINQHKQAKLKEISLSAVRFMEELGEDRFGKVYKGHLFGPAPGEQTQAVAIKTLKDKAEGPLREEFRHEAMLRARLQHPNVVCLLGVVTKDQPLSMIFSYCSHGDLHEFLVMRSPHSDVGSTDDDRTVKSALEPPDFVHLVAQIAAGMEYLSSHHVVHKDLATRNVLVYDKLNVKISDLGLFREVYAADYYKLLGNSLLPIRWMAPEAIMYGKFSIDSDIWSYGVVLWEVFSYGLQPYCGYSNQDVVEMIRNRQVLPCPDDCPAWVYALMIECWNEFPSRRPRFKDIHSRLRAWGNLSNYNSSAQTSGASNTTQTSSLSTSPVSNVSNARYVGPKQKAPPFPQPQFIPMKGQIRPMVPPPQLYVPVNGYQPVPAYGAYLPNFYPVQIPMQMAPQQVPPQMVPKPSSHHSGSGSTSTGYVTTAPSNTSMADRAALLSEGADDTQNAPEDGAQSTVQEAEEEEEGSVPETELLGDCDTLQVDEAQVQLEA
UniProt Q9NYA1, whole entry: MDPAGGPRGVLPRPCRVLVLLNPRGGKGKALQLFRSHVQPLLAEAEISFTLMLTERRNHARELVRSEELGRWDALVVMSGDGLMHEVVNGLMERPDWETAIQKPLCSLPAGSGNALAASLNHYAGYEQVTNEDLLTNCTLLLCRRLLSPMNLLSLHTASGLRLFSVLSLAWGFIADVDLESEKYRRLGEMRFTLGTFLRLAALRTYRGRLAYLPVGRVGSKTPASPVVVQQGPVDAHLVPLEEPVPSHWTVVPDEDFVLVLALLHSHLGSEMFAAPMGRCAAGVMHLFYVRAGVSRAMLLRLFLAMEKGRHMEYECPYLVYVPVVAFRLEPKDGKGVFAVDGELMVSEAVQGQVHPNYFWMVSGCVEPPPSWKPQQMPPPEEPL
UniProt Q9Y6E0: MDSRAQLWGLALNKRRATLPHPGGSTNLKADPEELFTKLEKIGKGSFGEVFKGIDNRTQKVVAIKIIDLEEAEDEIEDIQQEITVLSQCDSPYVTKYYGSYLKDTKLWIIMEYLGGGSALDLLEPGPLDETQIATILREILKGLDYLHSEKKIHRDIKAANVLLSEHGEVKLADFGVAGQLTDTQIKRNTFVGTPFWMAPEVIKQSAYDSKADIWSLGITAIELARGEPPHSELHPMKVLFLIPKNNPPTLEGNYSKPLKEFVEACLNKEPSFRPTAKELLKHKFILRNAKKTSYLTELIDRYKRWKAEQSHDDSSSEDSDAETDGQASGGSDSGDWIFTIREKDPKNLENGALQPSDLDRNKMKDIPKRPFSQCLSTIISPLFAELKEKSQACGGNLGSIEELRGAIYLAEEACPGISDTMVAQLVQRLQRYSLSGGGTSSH

How the values were obtained:
Experiment in all cases: kinase-Nluc reporter destabilization hit call (1 = scored as downregulated) (binary); higher = compound decreases kinase abundance
Details in all cases: K562; 2-18 h
PDPK1 = PDPK1 (UniProt O15530)
PIK4CA = PIK4CA (UniProt P42356)
PIK4CB = PIK4CB (UniProt Q9UBF8)
PLK1 = PLK1 (UniProt P53350)
PRKAA1 = PRKAA1 (UniProt Q13131)
PRKCA = PRKCA (UniProt P17252)
PTK2 = PTK2 (UniProt Q05397)
PTK2B = PTK2B (UniProt Q14289)
RAF1 = RAF1 (UniProt P04049)
[1] = target: RAF1_S257L (clone: RAF1_mut) (UniProt P04049)
RET = RET (UniProt P07949)
[2] = target: RET_M918T (clone: RET_mut) (UniProt P07949)
RIOK1 = RIOK1 (UniProt Q9BRS2)
RIPK1 = RIPK1 (UniProt Q13546)
RIPK2 = RIPK2 (UniProt O43353)
ROR2 = ROR2 (UniProt Q01974)
RPS6KA1 = RPS6KA1 (UniProt Q15418)
SPHK1 = SPHK1 (UniProt Q9NYA1)
SRC = SRC (UniProt P12931)
STK24 = STK24 (UniProt Q9Y6E0)

| Structure (SMILES) | kinase-Nluc reporter destabilization hit call (PDPK1) | kinase-Nluc reporter destabilization hit call (PIK4CA) | kinase-Nluc reporter destabilization hit call (PIK4CB) | kinase-Nluc reporter destabilization hit call (PLK1) | kinase-Nluc reporter destabilization hit call (PRKAA1) | kinase-Nluc reporter destabilization hit call (PRKCA) | kinase-Nluc reporter destabilization hit call (PTK2) | kinase-Nluc reporter destabilization hit call (PTK2B) | kinase-Nluc reporter destabilization hit call (RAF1) | kinase-Nluc reporter destabilization hit call [1] | kinase-Nluc reporter destabilization hit call (RET) | kinase-Nluc reporter destabilization hit call [2] | kinase-Nluc reporter destabilization hit call (RIOK1) | kinase-Nluc reporter destabilization hit call (RIPK1) | kinase-Nluc reporter destabilization hit call (RIPK2) | kinase-Nluc reporter destabilization hit call (ROR2) | kinase-Nluc reporter destabilization hit call (RPS6KA1) | kinase-Nluc reporter destabilization hit call (SPHK1) | kinase-Nluc reporter destabilization hit call (SRC) | kinase-Nluc reporter destabilization hit call (STK24) |
| --- | --- | --- | --- | --- | --- | --- | --- | --- | --- | --- | --- | --- | --- | --- | --- | --- | --- | --- | --- | --- |
| Nc1ncnc2c1c(-c1ccc(Oc3ccccc3)cc1)cn2C1CCCC1 (2.5 µM) | inactive: 0 | inactive: 0 | inactive: 0 | inactive: 0 | inactive: 0 | inactive: 0 | inactive: 0 | active: 1 | inactive: 0 | inactive: 0 | inactive: 0 | inactive: 0 | inactive: 0 | inactive: 0 | inactive: 0 | inactive: 0 | inactive: 0 | inactive: 0 | inactive: 0 | inactive: 0 |
| Cc1c[nH]c(/C=C2\C(=O)Nc3ccccc32)c1CCC(=O)O (10 µM) | inactive: 0 | inactive: 0 | inactive: 0 | inactive: 0 | inactive: 0 | inactive: 0 | inactive: 0 | inactive: 0 | inactive: 0 | inactive: 0 | inactive: 0 | inactive: 0 | inactive: 0 | inactive: 0 | inactive: 0 | inactive: 0 | inactive: 0 | inactive: 0 | inactive: 0 | inactive: 0 |
| CN1CCN(c2ccc(Nc3cc(-c4cccc(-n5ccc6cc(C7CC7)cc(F)c6c5=O)c4CO)cn(C)c3=O)nc2)CC1 (2.5 µM) | inactive: 0 | inactive: 0 | inactive: 0 | inactive: 0 | inactive: 0 | inactive: 0 | inactive: 0 | inactive: 0 | inactive: 0 | inactive: 0 | inactive: 0 | inactive: 0 | inactive: 0 | inactive: 0 | inactive: 0 | inactive: 0 | inactive: 0 | inactive: 0 | inactive: 0 | inactive: 0 |
| O=c1cc(-c2ccccc2)oc2c(O)c(O)ccc12 [7,8-Dihydroxyflavone] (10 µM) | inactive: 0 | inactive: 0 | inactive: 0 | inactive: 0 | inactive: 0 | inactive: 0 | inactive: 0 | inactive: 0 | inactive: 0 | inactive: 0 | inactive: 0 | inactive: 0 | inactive: 0 | inactive: 0 | inactive: 0 | inactive: 0 | inactive: 0 | inactive: 0 | inactive: 0 | inactive: 0 |
| COc1ccc(COc2ccc(Cc3cnc(N)nc3N)cc2OC)cc1 (10 µM) | inactive: 0 | inactive: 0 | inactive: 0 | inactive: 0 | inactive: 0 | inactive: 0 | inactive: 0 | inactive: 0 | inactive: 0 | inactive: 0 | inactive: 0 | inactive: 0 | inactive: 0 | inactive: 0 | inactive: 0 | inactive: 0 | inactive: 0 | inactive: 0 | inactive: 0 | inactive: 0 |
